Laboratory results reported in the supplement of paper PMC10849652.
The other results are listed elsewhere or left out. Residues, ends and D or L forms follow the SMILES beside them. *: point of attachment. Cbz = O=C(OCc1ccccc1)*

Sequences of proteins named here, by UniProt entry; tags and fusion partners are left off. A change or cut given only in a name is not applied to a line headed by its entry.
UniProt Q6N022: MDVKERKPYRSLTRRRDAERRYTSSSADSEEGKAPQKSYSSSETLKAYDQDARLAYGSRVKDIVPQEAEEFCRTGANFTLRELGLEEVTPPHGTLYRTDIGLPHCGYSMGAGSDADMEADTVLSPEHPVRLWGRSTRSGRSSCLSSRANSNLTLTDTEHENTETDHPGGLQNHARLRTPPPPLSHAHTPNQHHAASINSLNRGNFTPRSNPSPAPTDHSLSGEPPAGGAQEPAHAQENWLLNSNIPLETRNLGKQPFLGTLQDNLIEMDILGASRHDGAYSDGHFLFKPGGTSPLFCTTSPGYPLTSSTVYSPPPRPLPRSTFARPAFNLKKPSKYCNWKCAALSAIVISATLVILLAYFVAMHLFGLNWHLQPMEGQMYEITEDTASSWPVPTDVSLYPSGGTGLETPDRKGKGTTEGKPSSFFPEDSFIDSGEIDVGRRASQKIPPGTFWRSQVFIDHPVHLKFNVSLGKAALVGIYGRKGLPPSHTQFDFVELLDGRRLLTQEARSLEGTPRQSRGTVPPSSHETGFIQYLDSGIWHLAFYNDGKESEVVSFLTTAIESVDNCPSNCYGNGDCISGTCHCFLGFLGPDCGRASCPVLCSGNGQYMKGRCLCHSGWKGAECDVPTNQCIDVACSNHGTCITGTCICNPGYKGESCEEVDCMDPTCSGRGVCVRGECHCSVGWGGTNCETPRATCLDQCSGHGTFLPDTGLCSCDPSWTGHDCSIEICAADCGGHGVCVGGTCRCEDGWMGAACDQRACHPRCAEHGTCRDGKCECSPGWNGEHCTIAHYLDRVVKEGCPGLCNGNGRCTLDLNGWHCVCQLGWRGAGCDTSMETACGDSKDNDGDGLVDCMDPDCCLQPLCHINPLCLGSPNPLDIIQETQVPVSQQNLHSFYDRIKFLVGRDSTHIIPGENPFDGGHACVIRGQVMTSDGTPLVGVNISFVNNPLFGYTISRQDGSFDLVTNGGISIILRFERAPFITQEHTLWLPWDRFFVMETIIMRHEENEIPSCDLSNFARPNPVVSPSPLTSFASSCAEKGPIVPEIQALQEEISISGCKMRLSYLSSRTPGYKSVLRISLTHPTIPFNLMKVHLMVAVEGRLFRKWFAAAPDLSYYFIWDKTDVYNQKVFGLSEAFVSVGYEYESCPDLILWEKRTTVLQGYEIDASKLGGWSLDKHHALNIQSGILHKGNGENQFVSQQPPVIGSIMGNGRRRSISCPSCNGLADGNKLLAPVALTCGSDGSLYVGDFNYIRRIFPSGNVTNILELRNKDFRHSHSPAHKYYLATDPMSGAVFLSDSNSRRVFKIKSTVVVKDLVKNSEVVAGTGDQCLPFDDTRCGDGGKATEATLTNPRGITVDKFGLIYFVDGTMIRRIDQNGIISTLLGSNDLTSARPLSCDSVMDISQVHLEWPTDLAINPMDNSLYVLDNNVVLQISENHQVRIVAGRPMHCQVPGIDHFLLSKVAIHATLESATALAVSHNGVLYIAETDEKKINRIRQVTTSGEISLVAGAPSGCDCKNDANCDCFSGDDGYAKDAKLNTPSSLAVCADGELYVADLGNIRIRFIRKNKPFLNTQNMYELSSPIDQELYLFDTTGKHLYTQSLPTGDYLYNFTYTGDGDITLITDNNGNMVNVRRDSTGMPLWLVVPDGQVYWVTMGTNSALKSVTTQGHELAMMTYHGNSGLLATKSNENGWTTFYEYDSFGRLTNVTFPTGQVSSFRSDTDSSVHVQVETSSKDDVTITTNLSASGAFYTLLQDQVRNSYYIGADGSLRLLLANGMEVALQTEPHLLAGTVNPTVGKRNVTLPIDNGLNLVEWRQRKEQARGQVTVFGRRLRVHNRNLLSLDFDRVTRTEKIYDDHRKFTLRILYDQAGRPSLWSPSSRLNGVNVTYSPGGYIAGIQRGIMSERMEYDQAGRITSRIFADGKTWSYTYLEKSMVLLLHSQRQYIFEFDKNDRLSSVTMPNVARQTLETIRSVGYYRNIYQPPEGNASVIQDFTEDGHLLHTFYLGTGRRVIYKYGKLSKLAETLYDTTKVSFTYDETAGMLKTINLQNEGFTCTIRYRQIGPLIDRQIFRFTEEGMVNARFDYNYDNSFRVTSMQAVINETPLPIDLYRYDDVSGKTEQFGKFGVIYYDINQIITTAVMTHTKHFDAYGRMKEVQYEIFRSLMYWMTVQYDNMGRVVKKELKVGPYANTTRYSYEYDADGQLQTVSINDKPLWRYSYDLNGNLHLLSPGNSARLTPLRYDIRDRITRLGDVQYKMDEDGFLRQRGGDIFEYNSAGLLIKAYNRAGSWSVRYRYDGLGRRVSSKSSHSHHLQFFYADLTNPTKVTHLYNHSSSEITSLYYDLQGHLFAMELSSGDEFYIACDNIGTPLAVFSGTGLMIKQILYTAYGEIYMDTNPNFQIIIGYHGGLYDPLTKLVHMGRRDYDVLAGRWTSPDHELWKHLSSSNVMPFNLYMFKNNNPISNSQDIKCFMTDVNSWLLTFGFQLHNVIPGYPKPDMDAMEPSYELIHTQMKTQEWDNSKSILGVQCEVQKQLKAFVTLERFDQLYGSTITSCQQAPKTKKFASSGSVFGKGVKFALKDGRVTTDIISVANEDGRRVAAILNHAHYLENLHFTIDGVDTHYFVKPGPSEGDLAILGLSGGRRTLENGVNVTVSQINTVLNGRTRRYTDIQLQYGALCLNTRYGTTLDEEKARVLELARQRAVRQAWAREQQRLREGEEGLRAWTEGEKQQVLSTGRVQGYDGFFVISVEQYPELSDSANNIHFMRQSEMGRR
UniProt Q6NUS6: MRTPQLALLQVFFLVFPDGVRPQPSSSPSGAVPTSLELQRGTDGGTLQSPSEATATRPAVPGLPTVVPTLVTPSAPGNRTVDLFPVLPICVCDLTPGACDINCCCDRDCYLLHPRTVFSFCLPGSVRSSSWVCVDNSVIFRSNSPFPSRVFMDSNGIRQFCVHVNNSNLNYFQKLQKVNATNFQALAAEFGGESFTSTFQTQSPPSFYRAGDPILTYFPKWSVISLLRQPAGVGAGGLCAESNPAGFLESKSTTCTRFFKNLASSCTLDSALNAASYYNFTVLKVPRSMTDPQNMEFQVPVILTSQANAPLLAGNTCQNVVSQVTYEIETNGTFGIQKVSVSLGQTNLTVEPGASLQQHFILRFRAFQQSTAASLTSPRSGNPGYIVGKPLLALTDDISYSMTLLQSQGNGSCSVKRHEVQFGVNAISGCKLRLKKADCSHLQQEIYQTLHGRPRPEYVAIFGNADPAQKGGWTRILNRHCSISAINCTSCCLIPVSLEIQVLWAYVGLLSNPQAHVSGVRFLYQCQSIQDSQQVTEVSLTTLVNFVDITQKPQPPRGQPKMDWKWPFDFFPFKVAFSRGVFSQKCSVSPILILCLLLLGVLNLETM
UniProt Q96N21: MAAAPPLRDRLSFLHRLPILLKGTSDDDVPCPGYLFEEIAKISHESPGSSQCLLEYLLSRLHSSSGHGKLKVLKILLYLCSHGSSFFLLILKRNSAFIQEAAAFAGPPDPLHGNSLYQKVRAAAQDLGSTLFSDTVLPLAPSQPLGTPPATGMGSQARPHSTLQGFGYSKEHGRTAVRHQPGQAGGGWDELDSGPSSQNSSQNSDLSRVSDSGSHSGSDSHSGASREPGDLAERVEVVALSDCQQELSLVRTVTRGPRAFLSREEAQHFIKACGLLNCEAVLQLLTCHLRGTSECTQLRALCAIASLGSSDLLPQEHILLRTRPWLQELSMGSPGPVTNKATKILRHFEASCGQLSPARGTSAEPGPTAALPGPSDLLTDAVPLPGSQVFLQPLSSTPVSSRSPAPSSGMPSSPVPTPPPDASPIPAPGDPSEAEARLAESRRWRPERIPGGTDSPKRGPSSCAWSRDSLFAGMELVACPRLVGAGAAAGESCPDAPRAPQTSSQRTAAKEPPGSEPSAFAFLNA
UniProt Q04726: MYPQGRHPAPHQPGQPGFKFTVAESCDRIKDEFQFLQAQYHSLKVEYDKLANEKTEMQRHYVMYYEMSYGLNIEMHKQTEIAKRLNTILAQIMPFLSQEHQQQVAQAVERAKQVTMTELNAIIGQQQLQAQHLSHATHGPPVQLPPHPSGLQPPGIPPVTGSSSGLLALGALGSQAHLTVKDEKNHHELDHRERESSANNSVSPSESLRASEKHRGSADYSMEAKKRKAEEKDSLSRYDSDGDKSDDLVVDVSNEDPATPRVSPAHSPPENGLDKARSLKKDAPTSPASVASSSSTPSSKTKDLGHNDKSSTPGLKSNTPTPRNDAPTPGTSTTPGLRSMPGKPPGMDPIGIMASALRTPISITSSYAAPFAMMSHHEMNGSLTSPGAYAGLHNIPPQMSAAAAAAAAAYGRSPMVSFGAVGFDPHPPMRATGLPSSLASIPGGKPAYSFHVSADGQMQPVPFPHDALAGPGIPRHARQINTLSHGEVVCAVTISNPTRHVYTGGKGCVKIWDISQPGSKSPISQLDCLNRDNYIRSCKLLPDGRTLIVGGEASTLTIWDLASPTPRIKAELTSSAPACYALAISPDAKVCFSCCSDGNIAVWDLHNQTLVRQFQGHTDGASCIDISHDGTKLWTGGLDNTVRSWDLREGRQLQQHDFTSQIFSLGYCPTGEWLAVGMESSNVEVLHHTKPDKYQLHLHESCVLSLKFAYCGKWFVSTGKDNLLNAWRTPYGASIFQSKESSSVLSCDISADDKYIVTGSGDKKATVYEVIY
UniProt Q8IYN2: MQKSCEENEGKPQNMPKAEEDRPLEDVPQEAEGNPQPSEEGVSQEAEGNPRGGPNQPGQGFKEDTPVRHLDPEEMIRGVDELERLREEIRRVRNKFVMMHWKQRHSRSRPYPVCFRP
UniProt Q5VWP2: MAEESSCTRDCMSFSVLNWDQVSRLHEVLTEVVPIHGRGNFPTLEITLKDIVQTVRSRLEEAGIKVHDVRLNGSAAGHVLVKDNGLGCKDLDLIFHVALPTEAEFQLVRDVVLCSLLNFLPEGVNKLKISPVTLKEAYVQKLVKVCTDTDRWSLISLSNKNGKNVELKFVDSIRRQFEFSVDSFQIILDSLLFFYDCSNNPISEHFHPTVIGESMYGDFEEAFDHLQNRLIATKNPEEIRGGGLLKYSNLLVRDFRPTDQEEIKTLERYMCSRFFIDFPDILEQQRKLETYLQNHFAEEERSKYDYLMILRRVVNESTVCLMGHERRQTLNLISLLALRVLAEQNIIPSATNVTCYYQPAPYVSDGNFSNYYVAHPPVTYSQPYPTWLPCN
UniProt Q9H7E2: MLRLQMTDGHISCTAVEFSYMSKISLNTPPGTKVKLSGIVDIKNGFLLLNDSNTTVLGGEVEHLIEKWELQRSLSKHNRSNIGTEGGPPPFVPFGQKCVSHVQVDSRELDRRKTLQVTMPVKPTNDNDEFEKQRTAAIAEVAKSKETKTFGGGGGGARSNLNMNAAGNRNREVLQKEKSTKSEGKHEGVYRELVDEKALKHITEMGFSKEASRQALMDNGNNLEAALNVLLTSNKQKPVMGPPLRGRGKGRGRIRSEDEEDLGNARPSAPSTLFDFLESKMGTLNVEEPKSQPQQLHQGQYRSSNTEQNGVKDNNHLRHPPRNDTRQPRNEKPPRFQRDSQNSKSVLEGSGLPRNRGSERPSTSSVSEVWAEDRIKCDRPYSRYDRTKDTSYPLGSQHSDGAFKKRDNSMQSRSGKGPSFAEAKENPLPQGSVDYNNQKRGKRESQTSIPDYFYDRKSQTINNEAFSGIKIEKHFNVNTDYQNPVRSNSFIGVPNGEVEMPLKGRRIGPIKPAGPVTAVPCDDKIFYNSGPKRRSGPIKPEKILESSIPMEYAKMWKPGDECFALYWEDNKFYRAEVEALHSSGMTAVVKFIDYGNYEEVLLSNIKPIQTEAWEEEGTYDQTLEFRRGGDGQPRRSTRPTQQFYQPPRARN
UniProt Q9BQ70: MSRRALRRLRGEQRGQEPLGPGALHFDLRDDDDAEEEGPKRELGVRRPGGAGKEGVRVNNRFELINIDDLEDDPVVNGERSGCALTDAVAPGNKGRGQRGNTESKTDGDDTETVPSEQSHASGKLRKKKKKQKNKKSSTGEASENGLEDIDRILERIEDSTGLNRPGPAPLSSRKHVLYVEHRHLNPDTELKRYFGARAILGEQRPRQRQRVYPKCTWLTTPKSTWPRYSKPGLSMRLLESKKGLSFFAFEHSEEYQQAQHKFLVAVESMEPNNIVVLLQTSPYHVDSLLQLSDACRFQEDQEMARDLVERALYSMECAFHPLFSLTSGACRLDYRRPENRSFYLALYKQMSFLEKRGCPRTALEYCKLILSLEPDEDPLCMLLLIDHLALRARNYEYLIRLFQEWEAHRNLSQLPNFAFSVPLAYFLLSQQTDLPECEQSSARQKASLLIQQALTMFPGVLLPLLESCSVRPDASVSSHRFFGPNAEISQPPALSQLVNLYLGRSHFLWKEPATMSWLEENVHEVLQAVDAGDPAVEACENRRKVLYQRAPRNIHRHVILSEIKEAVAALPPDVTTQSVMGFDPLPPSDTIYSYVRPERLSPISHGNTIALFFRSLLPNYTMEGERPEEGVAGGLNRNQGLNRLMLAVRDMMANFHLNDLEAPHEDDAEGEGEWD

Key:
Assay in all cases: log2 fold change, soluble protein after heating vs DMSO (PISA); higher = thermal stabilisation; K562 cells, 10 uM, 30 min; active = over 0.2 and 3.5 SD of the protein, either way, in both replicates (recomputed)
erlotinib = compound: C#Cc1cccc(Nc2ncnc3cc(OCCOC)c(OCCOC)cc23)c1 [erlotinib]
Summary of the method: (§1)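 Aliquots of K562 cells (2×10^6 cells/mL) treated with 10 μM compound for 30 min were heated for 3 min over 48°C-58°C. After pooling and extraction in PBS with 0.5% NP-40 at 4°C, soluble protein from a 21,000xg, 90 min spin was quantified by TMTpro 16plex LC-MS/MS with channel sums equalised. Thermal stability is expressed against control samples, from duplicates, as a log2 fold change.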

[1] = compound: C1=CC(=CC=C1C2=NC3=C(N2)C=C(C=C3)C(=O)N)OC4=CC=C(C=C4)Cl
Summary of the method: as §1

[2] = compound: C1=CC=C(C=C1)C2=NC(=C(N2)C3=CC=NC=C3)C4=CC(=C(C=C4)Cl)O
Summary of the method: as §1

[3] = compound: C1CCN(C1)C(=O)NC2=CC=CC(=C2)NC3=NC=C(C(=N3)NCCC4=CN=CN4)Br
Summary of the method: as §1

[4] = compound: C1CN(CCC1(CC2=CC=C(C=C2)Cl)N)C3=NC=NC4=C3C=CN4
Summary of the method: as §1

ralimetinib = compound: CC(C)(C)Cn1c(N)nc2ccc(-c3[nH]c(C(C)(C)C)nc3-c3ccc(F)cc3)nc21 [ralimetinib]
Summary of the method: as §1

[5] = compound: CC(C)C1=C2N=C(C=C(N2N=C1)NCC3=CC=CC=C3)NCCCCCCN
Summary of the method: as §1

[6] = compound: CC(C)C[C@@H](C=O)NC(=O)[C@H](CC(C)C)NC(=O)[C@H](CC(C)C)NC(=O)OCc1ccccc1
Summary of the method: as §1

[7] = compound: CC1=C(C2=C(C=C1)C(=O)C3=CC=CC=C3N2CCCN)C
Summary of the method: as §1

[8] = compound: C1=CC(=C(C=C1Cl)C2=NC3=NC=CN=C3C(=N2)NC4=CC=NC=C4)F
Summary of the method: as §1

IRAK-1-4 Inhibitor I = compound: C1COCCN1CCN2C3=CC=CC=C3N=C2NC(=O)C4=CC(=CC=C4)[N+](=O)[O-] [IRAK-1-4 Inhibitor I]
Summary of the method: as §1

[9] = compound: CC(C)(O)CC(=O)NCCn1ccc2ncnc(Nc3ccc(Oc4cccc(C(F)(F)F)c4)c(Cl)c3)c21
Summary of the method: as §1

pinometostat = compound: CC(C)N(C[C@H]1O[C@@H](n2cnc3c(N)ncnc32)[C@H](O)[C@@H]1O)[C@H]1C[C@@H](CCc2nc3cc(C(C)(C)C)ccc3[nH]2)C1 [pinometostat]
Summary of the method: as §1

[10] = compound: C1=CC2=NC=CN=C2C=C1/C=C/3\C(=O)NC(=O)S3
Summary of the method: as §1

ibrutinib = compound: C=CC(=O)N1CCC[C@@H](n2nc(-c3ccc(Oc4ccccc4)cc3)c3c(N)ncnc32)C1 [ibrutinib]
Summary of the method: as §1

[11] = compound: CC1=C(C(CC(=O)N1)C2=CC=C(C=C2)C(F)(F)F)C(=O)NC3=C(C=C4C(=C3)C=NN4)F
Summary of the method: as §1

[12] = compound: C/C(=N\NC(=O)C1=CC(=CC=C1)S(=O)(=O)N2CCOCC2)/C3=C(C=CC(=C3)Cl)O
Summary of the method: as §1

[13] = compound: C1=CC2=C(C=CC(=C2)/C=C\3/C(=O)NC(=NCC4=CC=CS4)S3)N=C1
Summary of the method: as §1

[14] = compound: C1=CC=C2C(=C1)C3=NNC4=CC=CC(=C43)C2=O
Summary of the method: as §1

[15] = compound: CC(=O)c1cnc2ccc(-c3cc(Cl)c(O)c(Cl)c3)nc2c1N[C@H]1CC[C@H](CN(C)C)CC1
Summary of the method: as §1

Measured: log2 fold change

TDRD15 (UniProt B5MCY1)
inactive: erlotinib 0.699 | [1] -0.113 | [2] 0.02 | [3] 0.331 | [4] 0.013 | ralimetinib 0.192 | [5] -0.029 | [6] 0.093 | [7] 0.141

TENM4 (UniProt Q6N022)
inactive: [8] -0.031 | IRAK-1-4 Inhibitor I -0.075 | [9] 0.056 | pinometostat 0

TCTN3 (UniProt Q6NUS6)
inactive: [8] -0.011 | [10] 0.136 | IRAK-1-4 Inhibitor I 0.003 | ibrutinib 0.032 | [9] -0.007 | pinometostat 0.081 | [11] 0.164

TEPSIN (UniProt Q96N21)
inactive: IRAK-1-4 Inhibitor I -0.049 | pinometostat 0.044

TCOF1 isoform 3 (UniProt Q13428)
inactive: erlotinib 0.062 | [8] -0.193 | [1] -0.172 | [2] -0.056 | [3] 0.101 | [4] 0.012 | ralimetinib 0.522 | [9] -0.095 | [5] -0.01 | [6] 0.176 | [7] -0.642

TLE3 (UniProt Q04726)
inactive: [10] -0.084 | ibrutinib -0.029

TCEAL8 (UniProt Q8IYN2)
inactive: erlotinib 0.036 | [1] -0.004 | IRAK-1-4 Inhibitor I -0.136 | [5] 0 | pinometostat 0.003 | [11] -0.014

TBC1D7 (UniProt Q9P0N9)
inactive: erlotinib -0.181 | [8] 0.046 | [1] 0.236 | [10] -0.256 | ibrutinib -0.066 | [9] -0.193 | [5] -0.309

TENT5C (UniProt Q5VWP2)
inactive: erlotinib -0.117 | [1] 0.087 | [10] 0.023 | [2] -0.104 | [3] -0.025 | [4] -0.017 | IRAK-1-4 Inhibitor I 0.136 | ibrutinib 0.008 | ralimetinib -0.119 | [5] 0.18 | [6] 0.03 | pinometostat -0.028 | [7] -0.014

TBC1D9 (UniProt Q6ZT07)
inactive: erlotinib 0.046 | [1] -0.022 | [10] -0.033 | ibrutinib -0.084 | [5] -0.087

TK1 (UniProt K7ERV3)
inactive: [12] 0.063 | [8] -0.011 | [13] 0.028 | [10] -0.006 | [2] -0.069 | [14] 0.037 | [3] -0.015 | [4] 0.061 | ibrutinib -0.033 | [15] -0.071 | ralimetinib -0.025 | [9] -0.122 | [6] 0.078 | [7] -0.037

TDRD3 isoform 3 (UniProt Q9H7E2)
inactive: [8] -0.208 | [10] -0.162 | ibrutinib 0.075 | [9] 0.181

TBX1 isoform 3 (UniProt O43435)
inactive: IRAK-1-4 Inhibitor I -0.111 | pinometostat 0.122 | [11] -0.067

TCF4 isoform 3 (UniProt P15884)
inactive: [3] -0.147 | [4] 0.099 | [7] -0.056

TLCD3A (UniProt Q8TBR7)
inactive: [12] -0.028 | [13] 0.064 | [14] -0.019 | [3] 0.034 | [4] 0.02 | [15] 0.095 | [7] -0.002

TCF25 (UniProt Q9BQ70)
inactive: [12] -0.323 | [8] -0.182 | [13] -0.175 | [2] 0.07 | [14] 0.026 | [3] -0.075 | [4] 0.011 | IRAK-1-4 Inhibitor I 0.059 | [15] -0.319 | ralimetinib 0.134 | [9] -0.015 | [6] 0.194 | pinometostat 0.05 | [7] -0.158

TCAF2 (UniProt A6NFQ2)
inactive: [8] -0.254 | [2] -0.201 | IRAK-1-4 Inhibitor I -0.002 | ralimetinib 0.286 | [9] 0.052 | [6] -0.022 | pinometostat 0.297 | [11] 0.021

TIGAR (UniProt Q9NQ88)
inactive: [10] -0.231 | ibrutinib -0.006

TCEAL9 (UniProt Q9UHQ7)
inactive: [8] -0.173 | [9] -0.259

TBC1D2B (UniProt Q9UPU7)
inactive: [10] -0.05 | IRAK-1-4 Inhibitor I 0.042 | ibrutinib -0.03 | pinometostat 0.061 | [11] -0.214

Three successive entries from above, for reference:
TCF25 (UniProt Q9BQ70)
inactive: [12] -0.323 | [8] -0.182 | [13] -0.175 | [2] 0.07 | [14] 0.026 | [3] -0.075 | [4] 0.011 | IRAK-1-4 Inhibitor I 0.059 | [15] -0.319 | ralimetinib 0.134 | [9] -0.015 | [6] 0.194 | pinometostat 0.05 | [7] -0.158

TCAF2 (UniProt A6NFQ2)
inactive: [8] -0.254 | [2] -0.201 | IRAK-1-4 Inhibitor I -0.002 | ralimetinib 0.286 | [9] 0.052 | [6] -0.022 | pinometostat 0.297 | [11] 0.021

TIGAR (UniProt Q9NQ88)
inactive: [10] -0.231 | ibrutinib -0.006
